Results on two molecules are retold here after US20170342160A1.

The chains behind the UniProt entries cited, without tags or fusion partners. Where a name states a change or a piece, a line headed by the entry shows the natural chain unless it says otherwise. A line that says so, or that is headed by a name, gives the form on record, which may keep a tag or linker.
recombinant extracellular domain of human 5T4 (soluble, produced in house) (Q13641, form named): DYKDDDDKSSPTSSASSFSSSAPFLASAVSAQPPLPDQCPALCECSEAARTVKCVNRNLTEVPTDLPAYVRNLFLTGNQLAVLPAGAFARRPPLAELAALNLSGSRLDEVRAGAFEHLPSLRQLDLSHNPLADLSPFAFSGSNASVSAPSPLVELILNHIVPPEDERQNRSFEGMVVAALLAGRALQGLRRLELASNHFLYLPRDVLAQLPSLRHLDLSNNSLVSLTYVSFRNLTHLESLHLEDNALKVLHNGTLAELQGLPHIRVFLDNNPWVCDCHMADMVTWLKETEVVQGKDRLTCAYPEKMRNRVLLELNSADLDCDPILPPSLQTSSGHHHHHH

The target in assay [1] is recombinant extracellular domain of human 5T4 (soluble, produced in house) (human) (UniProt Q13641). Put plainly: ELISA on recombinant 5T4 extracellular domain.
Assay [2] has the same target. Nature of the assay: ELISA on recombinant 5T4 extracellular domain (FIG. 3C). In general terms: ELISA stands for enzyme-linked immunosorbent assay.

These are yes or no findings as the source states them, for the method shown. Some entries that bind do so weakly or less than the wild type.

B1: dsFv(5T4), humanized VH(5T4) SEQ ID 6 and VL(5T4) SEQ ID 19 in dsFv format (scFv)
scFv: QVQLVQSGAEVKKPGASVKVSCKASGYSFTSYYMHWVKQSPGQCLEWIGRINPNNGVTLYNQKFKDRVTMTRDTSISTAYMELSRLRSDDTAVYYCARSTMITNYVMDYWGQGTLVTVSSASGGGGSGGGGSGGGGSAGDIVMTQSPDSLAVSLGERATINCKASQSVSNDVAWYQQKPGQPPKLLIYYTSSRYAGVPDRFSGSGSGTDFTLTISSLQAEDVAVYYCQQDYNSPPTFGCGTKLEIK
As to B1, the binding result in assay [1] and in assay [2] was “binds” throughout.

B2: Fab(5T4), humanized VH(5T4) SEQ ID 6 and VL(5T4) SEQ ID 19 in Fab format (Fab, V domains shown)
VH: QVQLVQSGAEVKKPGASVKVSCKASGYSFTSYYMHWVKQSPGQGLEWIGRINPNNGVTLYNQKFKDRVTMTRDTSISTAYMELSRLRSDDTAVYYCARSTMITNYVMDYWGQGTLVTVSS
VL: DIVMTQSPDSLAVSLGERATINCKASQSVSNDVAWYQQKPGQPPKLLIYYTSSRYAGVPDRFSGSGSGTDFTLTISSLQAEDVAVYYCQQDYNSPPTFGGGTKLEIK
For the molecule B2, the binding entry in assay [1] and in assay [2] was “binds” each time.
